According to publication doi:10.1101/2024.06.29.601312:
These are yes or no findings as the source states them, for the method shown. In cells and extracts the contact can be indirect. Some results given as binding are weak or reduced against the parent protein; the word gives no strength. Values belong to the molecule of their own block, whether it stands above or below them.

Chains of the proteins cited; added tags and fusions are not shown.
UniProt Q01147: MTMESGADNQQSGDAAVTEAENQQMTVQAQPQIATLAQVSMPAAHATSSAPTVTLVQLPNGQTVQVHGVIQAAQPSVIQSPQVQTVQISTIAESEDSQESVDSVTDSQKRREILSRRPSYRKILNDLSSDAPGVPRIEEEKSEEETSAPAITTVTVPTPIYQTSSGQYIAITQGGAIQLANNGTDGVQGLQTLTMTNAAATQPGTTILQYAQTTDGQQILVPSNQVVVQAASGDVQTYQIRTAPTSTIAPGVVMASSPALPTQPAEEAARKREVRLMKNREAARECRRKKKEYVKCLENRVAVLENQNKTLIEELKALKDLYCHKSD

Biological target: T1, Foxp3 (mouse (endogenous in T cells of WT mice)) (UniProt Q99JB6)
T1 sequence: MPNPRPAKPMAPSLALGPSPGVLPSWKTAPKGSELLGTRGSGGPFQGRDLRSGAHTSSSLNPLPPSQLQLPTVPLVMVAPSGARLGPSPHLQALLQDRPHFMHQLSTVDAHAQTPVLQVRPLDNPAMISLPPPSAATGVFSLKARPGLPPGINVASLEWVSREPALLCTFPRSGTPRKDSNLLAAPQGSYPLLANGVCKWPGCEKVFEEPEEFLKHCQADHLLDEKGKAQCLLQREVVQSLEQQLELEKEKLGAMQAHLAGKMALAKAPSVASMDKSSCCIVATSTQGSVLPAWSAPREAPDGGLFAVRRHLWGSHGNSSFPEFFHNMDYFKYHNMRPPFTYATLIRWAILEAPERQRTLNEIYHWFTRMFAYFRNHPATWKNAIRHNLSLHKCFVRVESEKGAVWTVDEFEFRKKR
Test: co-IP

binding: binds
Molecule: cAMP response element binding protein CREB (from UniProt Q01147 1-327)

binding: binds
B1: CREM (protein, UniProt P27699 1-357)
chain: MSKCGRKKYMRTNVRQMTMETVESQQDRSVTRSVAEHSSAHMQTGQISVPTLAQVSVAGSGTGRGSPAVTLVQLPSGQTVQVQGVIQTPHPSVIQSPQIQTVQVATIAETDDSADSEVIDSHKRREILSRRPSYRKILNELSSDVPGIPKIEEEKSEEEGTPPNIATMAVPTSIYQTSTGQYIAIAQGGTIQISNPGSDGVQGLQALTMTNSGAPPPGATIVQYAAQSADGTQQFFVPGSQVVVQDEETDLAPSHMAAATGDMPTYQIRAPTTALPQGVVMAASPGSLHSPQQLAEEATRKRELRLMKNREAAKECRRRKKEYVKCLESRVAVLEVQNKKLIEELETLKDICSPKTD
